Test results published in article PMC6981194.
No constants are given. Whether binding was seen depends on the method and setting. In cells and extracts the contact can be indirect. Some binding calls cover weakened binding; strength is not graded here.

Sequences of proteins named here, by UniProt entry; tags and fusion partners are left off.
UniProt A0A8C2QHS8: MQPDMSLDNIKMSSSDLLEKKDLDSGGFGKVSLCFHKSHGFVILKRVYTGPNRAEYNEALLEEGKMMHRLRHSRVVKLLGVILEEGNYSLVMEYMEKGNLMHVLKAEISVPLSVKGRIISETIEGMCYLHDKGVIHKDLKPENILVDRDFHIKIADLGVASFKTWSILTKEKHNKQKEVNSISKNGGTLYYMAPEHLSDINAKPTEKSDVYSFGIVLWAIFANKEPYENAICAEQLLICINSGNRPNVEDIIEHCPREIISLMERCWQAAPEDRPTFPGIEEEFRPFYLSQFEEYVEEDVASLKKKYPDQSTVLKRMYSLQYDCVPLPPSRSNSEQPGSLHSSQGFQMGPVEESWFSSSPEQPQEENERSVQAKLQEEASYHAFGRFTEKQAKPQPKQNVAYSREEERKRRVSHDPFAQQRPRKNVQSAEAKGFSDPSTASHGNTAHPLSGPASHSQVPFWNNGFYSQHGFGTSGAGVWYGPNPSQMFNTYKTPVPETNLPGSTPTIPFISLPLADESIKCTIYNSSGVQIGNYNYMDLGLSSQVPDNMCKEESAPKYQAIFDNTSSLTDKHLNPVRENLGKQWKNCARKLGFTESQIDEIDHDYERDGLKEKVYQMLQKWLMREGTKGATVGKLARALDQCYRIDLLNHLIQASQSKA
UniProt P46460: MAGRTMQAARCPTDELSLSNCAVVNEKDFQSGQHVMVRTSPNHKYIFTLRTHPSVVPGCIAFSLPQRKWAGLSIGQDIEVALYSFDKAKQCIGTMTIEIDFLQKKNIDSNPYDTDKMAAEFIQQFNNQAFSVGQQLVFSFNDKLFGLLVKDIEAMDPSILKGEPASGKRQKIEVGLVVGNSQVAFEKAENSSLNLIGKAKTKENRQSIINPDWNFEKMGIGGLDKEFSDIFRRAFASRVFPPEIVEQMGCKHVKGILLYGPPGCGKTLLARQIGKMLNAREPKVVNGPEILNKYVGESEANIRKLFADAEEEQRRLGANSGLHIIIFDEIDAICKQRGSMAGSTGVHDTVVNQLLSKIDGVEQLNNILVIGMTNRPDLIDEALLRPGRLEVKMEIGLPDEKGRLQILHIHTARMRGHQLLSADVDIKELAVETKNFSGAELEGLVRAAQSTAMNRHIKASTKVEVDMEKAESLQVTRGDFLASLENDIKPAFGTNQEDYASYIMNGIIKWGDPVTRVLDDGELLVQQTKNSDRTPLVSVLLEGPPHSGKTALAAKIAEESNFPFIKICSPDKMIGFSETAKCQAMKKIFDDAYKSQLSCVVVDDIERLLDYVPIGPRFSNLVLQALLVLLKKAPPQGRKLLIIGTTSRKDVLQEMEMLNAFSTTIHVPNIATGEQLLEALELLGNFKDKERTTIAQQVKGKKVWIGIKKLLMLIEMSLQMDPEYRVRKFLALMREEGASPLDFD
UniProt P18708: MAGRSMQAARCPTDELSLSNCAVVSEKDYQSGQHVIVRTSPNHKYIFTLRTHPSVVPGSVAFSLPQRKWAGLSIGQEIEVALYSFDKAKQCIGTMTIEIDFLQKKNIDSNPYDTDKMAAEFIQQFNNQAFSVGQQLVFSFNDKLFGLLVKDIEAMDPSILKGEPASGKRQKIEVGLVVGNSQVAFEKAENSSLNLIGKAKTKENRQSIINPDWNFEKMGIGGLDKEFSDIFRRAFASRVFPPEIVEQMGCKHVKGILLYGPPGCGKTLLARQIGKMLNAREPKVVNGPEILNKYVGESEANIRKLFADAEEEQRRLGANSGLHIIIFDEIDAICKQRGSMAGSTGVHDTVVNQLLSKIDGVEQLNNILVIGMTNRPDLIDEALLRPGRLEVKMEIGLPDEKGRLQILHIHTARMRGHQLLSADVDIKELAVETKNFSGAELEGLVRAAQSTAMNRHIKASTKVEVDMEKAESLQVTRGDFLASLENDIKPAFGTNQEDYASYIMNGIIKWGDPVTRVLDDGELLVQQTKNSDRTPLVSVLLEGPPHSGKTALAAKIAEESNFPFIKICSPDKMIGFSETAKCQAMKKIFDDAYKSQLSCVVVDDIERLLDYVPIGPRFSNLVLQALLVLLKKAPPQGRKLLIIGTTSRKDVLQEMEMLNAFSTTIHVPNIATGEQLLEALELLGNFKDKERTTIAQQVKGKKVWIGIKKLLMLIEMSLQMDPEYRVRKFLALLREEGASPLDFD

Legend:
[1] = target: T1, ASIC1a N-terminal truncation mutant Δ1–20 (mouse) (UniProt Q6NXK8); experiment: co-IP; lysates of transfected CHO cells exposed to pH 7.4 or pH 6.0; anti-ASIC1a antibody, Protein G agarose, 4 °C; lysis buffer 20 mM Tris-Cl pH 7.4, 150 mM NaCl, 1% Triton X-100; blots for RIPK1 and NSF
T1 sequence: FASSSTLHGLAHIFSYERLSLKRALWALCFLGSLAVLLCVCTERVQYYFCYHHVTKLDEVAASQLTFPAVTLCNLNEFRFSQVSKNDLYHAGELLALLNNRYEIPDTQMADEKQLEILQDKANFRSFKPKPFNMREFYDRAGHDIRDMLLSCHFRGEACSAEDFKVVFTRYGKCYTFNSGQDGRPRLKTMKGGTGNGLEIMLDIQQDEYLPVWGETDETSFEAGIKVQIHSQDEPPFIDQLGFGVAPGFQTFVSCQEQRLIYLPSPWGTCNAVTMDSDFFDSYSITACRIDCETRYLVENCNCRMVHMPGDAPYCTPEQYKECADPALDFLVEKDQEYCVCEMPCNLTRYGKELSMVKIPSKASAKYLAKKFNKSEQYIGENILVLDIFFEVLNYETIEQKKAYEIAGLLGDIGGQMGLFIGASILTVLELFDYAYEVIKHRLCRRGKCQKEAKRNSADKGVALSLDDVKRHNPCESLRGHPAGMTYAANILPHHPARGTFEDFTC

[2] = target: T2, acid-sensing ion channel 1a (ASIC1a), wild type, expressed in CHO cells (mouse) (UniProt Q6NXK8); experiment: as above
T2 sequence: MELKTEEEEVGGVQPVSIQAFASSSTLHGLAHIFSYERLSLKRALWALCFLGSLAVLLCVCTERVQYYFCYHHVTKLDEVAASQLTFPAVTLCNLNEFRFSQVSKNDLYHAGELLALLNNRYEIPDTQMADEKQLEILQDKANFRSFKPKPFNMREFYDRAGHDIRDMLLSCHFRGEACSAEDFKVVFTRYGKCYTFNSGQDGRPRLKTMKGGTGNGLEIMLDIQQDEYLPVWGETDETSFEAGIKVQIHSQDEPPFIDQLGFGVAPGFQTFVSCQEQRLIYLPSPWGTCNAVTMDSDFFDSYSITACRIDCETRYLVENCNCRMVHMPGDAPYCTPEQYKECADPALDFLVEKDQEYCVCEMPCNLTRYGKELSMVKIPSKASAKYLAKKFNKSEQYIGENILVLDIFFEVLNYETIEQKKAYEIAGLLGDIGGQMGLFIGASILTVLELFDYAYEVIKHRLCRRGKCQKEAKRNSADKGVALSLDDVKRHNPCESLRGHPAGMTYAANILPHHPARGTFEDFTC

[3] = target: T3, receptor-interacting serine/threonine-protein kinase 1 (RIPK1), endogenous in mouse brain and cultured mouse cortical neurons (mouse (endogenous in brain and cortical neurons)) (UniProt Q60855); experiment: co-IP; lysates of contralateral and ischemic (MCAO, 1 h) mouse brain hemispheres, WT and ASIC1a KO mice; anti-ASIC1a, anti-RIPK1 or anti-NSF antibody, Protein G agarose, 4 °C; lysis buffer 20 mM Tris-Cl pH 7.4, 150 mM NaCl, 1% Triton X-100
T3 sequence: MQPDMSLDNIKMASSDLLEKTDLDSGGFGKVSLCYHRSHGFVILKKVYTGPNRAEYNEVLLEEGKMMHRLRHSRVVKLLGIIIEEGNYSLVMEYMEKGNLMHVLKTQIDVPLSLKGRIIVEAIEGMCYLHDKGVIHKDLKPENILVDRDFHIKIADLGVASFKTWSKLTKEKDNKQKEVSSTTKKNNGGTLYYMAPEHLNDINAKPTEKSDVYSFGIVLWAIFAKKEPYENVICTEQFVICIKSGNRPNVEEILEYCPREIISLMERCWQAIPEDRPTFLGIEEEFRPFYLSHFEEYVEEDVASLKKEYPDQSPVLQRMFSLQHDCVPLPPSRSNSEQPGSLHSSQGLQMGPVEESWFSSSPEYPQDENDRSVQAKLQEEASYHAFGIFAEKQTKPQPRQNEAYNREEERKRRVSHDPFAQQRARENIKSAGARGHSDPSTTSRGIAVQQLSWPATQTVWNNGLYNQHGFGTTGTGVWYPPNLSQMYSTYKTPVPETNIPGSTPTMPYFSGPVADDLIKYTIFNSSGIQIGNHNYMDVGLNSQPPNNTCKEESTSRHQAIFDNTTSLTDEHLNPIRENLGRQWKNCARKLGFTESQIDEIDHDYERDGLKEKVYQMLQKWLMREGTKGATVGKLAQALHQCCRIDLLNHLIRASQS

[4] = target: T4, acid-sensing ion channel 1a (ASIC1a), endogenous in mouse brain and cultured mouse cortical neurons (mouse (endogenous in brain and cortical neurons)) (UniProt Q6NXK8); experiment: as above
T4 sequence: T2 sequence

[5] = target: T5, ASIC1a N-terminal truncation mutant Δ1–41 (mouse) (UniProt Q6NXK8); experiment: co-IP; lysates of transfected CHO cells exposed to pH 7.4 or pH 6.0; anti-ASIC1a antibody, Protein G agarose, 4 °C; lysis buffer 20 mM Tris-Cl pH 7.4, 150 mM NaCl, 1% Triton X-100; blots for RIPK1 and NSF
T5 sequence: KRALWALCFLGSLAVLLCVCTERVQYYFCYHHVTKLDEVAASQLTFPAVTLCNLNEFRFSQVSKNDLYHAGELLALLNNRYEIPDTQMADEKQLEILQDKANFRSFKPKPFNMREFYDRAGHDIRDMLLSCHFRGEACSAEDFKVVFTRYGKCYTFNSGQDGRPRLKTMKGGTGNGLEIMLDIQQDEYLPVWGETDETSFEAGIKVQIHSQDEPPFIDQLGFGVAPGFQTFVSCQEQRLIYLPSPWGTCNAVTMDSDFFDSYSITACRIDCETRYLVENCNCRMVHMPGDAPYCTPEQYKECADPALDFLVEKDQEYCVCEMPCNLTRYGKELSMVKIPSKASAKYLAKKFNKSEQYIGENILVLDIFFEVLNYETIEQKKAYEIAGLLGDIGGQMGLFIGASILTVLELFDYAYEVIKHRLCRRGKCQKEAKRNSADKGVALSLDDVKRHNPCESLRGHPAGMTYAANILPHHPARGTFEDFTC

| binding [1] | binding [2] | binding [3] | binding [4] | binding [5] | Substance |
| --- | --- | --- | --- | --- | --- |
| binds | binds |  |  |  | receptor-interacting serine/threonine-protein kinase 1 (RIPK1) in CHO cells (from UniProt A0A8C2QHS8 1-659) |
|  |  | binds | binds |  | N-ethylmaleimide-sensitive fusion ATPase (NSF), endogenous in mouse brain and cultured mouse cortical neurons (from UniProt P46460 1-744) |
| binds | binds |  |  | binds | N-ethylmaleimide-sensitive fusion ATPase (NSF) in CHO cells (from UniProt P18708 1-744) |
